Measured values from the supplement of paper PMC6411743.
± gives the standard deviation of the averaged measurements. This is a selection; strong and weak results do not stand in their true shares. Most values lie at the level of the controls, where differences are scatter.

Sequences of proteins named here, by UniProt entry; tags and fusion partners are left off. A change or cut given only in a name is not applied to a line headed by its entry.
UniProt Q9BX68: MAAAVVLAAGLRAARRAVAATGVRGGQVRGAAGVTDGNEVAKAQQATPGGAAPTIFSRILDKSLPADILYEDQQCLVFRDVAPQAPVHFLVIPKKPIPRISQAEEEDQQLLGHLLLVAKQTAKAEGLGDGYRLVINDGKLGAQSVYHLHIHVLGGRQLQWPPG
UniProt Q9BRA0: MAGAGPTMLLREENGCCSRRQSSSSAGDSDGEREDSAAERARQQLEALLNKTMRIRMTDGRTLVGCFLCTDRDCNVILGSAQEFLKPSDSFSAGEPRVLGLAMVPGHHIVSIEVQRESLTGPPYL
UniProt Q9BRV8: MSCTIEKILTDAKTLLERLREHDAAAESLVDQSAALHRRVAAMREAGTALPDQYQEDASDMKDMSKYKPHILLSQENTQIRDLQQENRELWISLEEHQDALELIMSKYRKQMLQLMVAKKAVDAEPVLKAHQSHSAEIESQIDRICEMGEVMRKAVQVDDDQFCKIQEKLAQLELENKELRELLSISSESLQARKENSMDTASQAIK
UniProt Q9BU02: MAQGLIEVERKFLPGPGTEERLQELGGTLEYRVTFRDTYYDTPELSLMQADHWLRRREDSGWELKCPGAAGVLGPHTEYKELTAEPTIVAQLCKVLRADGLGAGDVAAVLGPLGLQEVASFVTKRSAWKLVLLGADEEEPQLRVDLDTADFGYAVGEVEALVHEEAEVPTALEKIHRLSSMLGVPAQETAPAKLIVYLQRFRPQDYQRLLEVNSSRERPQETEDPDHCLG
UniProt Q99570, whole entry: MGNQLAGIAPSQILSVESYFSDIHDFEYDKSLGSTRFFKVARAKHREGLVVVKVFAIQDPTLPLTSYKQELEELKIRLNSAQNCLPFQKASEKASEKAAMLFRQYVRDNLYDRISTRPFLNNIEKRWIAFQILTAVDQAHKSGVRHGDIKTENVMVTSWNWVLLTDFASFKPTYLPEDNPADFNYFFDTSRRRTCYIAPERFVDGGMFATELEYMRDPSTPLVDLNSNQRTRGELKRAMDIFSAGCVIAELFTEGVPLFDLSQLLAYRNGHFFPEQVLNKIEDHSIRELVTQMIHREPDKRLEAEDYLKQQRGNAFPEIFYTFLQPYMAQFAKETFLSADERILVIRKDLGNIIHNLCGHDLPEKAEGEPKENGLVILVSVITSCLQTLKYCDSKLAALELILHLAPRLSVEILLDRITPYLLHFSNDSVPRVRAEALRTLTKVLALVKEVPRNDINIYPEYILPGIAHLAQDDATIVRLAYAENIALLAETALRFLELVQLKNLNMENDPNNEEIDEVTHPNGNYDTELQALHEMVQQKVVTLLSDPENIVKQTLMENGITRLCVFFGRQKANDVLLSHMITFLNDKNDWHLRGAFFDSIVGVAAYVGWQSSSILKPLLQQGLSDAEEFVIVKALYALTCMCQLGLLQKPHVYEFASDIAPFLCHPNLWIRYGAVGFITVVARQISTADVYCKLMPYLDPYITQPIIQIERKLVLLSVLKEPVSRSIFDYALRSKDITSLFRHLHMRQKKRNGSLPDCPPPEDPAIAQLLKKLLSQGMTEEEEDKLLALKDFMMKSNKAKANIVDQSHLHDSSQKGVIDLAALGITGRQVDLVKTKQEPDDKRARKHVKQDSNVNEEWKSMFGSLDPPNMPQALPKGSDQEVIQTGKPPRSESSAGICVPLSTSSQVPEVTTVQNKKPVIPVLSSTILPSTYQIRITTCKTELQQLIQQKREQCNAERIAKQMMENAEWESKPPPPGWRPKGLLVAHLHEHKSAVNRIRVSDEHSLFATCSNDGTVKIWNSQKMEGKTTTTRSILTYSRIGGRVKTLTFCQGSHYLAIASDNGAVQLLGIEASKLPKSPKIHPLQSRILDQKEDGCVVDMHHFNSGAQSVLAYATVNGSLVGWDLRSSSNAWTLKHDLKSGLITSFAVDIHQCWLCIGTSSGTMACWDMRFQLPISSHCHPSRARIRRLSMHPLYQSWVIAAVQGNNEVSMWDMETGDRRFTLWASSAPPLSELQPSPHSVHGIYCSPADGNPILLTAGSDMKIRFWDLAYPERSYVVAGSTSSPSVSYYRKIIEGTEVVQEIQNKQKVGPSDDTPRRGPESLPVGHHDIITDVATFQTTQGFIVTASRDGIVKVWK
UniProt Q9BW71: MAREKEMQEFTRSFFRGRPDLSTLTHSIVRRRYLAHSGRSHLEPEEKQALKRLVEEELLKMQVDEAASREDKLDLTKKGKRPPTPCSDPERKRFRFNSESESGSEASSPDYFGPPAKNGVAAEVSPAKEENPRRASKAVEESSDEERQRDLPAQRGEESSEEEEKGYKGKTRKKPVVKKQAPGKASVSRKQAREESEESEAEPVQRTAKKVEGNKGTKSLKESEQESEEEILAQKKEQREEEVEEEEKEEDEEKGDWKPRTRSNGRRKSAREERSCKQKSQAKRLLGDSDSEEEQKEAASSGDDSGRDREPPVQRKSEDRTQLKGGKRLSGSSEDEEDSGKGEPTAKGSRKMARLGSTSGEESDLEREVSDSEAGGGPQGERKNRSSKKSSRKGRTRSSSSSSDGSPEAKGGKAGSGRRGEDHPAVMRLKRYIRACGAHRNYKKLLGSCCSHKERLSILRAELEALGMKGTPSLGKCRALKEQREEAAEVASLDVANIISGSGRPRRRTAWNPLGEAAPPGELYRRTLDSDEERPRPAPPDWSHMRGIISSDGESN
UniProt Q9BT30: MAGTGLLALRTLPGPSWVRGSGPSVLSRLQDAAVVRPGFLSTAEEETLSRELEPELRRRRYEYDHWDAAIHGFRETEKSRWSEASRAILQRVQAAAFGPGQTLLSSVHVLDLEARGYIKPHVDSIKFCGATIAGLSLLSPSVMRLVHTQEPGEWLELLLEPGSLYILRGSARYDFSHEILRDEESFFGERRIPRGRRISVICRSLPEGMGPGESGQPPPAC
UniProt Q96T76: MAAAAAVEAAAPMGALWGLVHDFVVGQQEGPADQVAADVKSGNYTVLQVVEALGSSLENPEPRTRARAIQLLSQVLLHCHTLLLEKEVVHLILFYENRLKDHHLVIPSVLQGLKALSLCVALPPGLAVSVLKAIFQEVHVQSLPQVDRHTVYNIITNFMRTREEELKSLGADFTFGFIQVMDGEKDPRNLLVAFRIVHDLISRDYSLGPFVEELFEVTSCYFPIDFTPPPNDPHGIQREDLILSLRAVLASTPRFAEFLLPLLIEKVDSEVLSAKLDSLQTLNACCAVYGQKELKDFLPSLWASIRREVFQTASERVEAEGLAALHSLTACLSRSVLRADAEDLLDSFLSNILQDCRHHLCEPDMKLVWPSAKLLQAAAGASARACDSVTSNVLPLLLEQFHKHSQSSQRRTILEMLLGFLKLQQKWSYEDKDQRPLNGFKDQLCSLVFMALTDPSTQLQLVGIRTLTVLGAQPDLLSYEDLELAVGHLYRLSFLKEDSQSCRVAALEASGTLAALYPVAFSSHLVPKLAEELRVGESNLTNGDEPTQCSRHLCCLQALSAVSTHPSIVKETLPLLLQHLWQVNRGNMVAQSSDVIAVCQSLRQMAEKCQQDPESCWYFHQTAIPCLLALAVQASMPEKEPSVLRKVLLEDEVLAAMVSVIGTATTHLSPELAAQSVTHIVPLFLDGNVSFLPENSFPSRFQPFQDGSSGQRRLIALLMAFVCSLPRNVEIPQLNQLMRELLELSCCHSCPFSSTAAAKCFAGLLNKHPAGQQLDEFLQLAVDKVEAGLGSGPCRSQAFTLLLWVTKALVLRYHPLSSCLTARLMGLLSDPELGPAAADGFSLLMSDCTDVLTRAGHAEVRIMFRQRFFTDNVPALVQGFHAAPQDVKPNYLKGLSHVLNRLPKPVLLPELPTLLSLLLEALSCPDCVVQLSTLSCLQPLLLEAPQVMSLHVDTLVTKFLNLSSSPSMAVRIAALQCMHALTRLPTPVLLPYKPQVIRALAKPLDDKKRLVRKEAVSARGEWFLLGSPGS
UniProt Q9BVG9: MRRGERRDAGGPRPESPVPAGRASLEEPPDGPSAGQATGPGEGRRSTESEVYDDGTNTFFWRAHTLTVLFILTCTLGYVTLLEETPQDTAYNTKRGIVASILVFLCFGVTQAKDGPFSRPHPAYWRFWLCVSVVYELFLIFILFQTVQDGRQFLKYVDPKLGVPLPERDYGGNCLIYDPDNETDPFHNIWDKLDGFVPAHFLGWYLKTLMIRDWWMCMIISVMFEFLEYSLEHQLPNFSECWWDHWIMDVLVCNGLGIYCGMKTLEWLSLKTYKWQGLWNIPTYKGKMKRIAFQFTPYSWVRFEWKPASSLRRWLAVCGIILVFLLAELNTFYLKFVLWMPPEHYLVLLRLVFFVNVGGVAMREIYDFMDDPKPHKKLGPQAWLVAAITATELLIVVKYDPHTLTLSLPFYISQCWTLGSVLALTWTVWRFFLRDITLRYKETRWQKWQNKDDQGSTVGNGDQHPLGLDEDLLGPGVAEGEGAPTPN
UniProt Q9BRX5: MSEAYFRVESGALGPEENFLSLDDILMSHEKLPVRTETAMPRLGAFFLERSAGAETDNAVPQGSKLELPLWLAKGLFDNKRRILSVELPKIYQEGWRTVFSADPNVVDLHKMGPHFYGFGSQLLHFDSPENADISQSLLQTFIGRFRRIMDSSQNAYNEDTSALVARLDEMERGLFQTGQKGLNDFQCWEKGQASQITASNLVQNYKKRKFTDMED
UniProt Q9BZD4: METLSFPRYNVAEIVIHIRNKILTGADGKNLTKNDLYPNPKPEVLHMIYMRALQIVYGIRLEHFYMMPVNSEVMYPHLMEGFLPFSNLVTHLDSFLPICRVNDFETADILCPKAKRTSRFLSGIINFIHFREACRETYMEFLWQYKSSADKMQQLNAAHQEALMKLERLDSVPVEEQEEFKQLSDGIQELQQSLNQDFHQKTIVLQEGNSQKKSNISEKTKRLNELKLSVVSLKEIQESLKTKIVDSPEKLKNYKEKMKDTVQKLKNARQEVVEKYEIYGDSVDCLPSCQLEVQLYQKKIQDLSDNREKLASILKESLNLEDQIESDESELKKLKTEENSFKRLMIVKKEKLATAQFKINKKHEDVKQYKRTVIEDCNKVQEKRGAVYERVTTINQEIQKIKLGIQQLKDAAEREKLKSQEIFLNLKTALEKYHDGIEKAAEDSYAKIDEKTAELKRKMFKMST
UniProt Q9BT73: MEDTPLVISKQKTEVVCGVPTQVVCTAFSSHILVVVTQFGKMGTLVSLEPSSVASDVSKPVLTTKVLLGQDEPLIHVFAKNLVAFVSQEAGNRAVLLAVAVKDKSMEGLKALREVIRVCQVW
UniProt Q99459: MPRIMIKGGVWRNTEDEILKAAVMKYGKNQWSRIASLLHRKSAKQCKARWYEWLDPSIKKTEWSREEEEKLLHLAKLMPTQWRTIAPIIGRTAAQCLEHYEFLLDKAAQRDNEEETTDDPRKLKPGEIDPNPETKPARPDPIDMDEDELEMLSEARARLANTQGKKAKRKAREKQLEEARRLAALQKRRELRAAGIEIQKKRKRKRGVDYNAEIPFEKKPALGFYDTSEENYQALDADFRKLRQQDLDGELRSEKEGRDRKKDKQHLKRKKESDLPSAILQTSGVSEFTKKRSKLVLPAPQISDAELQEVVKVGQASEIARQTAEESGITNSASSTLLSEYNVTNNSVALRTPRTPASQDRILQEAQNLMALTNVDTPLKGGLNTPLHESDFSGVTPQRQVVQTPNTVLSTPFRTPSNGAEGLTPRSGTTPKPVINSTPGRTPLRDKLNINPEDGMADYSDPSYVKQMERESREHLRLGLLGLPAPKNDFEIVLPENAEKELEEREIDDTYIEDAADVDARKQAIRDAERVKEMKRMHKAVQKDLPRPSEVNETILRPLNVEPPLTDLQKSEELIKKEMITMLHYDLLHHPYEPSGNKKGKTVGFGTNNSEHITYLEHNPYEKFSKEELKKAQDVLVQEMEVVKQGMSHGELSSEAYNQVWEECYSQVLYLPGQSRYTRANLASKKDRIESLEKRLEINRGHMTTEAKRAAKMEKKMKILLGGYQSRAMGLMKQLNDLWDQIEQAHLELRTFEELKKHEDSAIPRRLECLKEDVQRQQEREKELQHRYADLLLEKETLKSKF
UniProt Q9BQC3: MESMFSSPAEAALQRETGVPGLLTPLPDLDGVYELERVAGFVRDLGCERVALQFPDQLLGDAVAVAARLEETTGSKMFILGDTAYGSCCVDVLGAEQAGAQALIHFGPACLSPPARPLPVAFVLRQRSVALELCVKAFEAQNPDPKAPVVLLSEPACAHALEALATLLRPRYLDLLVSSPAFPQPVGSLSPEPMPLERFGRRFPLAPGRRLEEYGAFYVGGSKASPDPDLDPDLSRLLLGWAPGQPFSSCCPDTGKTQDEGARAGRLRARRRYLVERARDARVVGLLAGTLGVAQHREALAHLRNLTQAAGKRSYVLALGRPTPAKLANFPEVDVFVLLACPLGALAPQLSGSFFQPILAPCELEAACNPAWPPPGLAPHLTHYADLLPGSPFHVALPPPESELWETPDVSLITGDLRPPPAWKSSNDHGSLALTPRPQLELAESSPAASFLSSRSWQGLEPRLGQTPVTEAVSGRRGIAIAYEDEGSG

These targets were tested with Nc1ncnc2c1ncn2[C@@H]1O[C@H](COP(=O)(O)OP(=O)(O)OP(=O)(O)O)[C@@H](O)[C@H]1O [adenosine triphosphate] (assay: NP40-soluble protein abundance relative to vehicle (solubility fold change) (ratio); higher = more soluble protein in presence of ATP). Conditions: concentration: 0.1mM.
Outline: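 Jurkat crude lysate prepared with a Dounce homogeniser was treated at eight concentrations spanning 0.1 to 10 mM, 10 min at room temperature then 3 min at 37 °C. Solubilisation with 0.8% NP40 and benzonase and ultracentrifugation preceded TMT labelling of the supernatant for LC-MS/MS. Fold change against the detergent-processed vehicle was determined per replicate from vsn-normalised intensities, across three independent experiments.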

Target	NP40-soluble protein abundance
HINT2 (UniProt Q9BX68)	0.975 ± 0.02
MRPL9 (UniProt Q9BYD2)	0.951 ± 0.071
MRPL32 (UniProt Q9BYC8)	0.969 ± 0.22
DDA1 (UniProt Q9BW61)	0.927 ± 0.09
PRPF18 (UniProt Q99633)	0.96 ± 0.023
ADAT1 (UniProt Q9BUB4)	1.09 ± 0.15
UniProt Q9BRA0 and related entries	0.904 ± 0.023
TMEM43 (UniProt Q9BTV4)	1.06 ± 0.088
ARPC5L (UniProt Q9BPX5)	0.881 ± 0.081
UniProt Q9BUL5 and related entries	0.962 ± 0.024
MIPEP (UniProt Q99797)	1.04 ± 0.069
SIKE1 (UniProt Q9BRV8)	0.939 ± 0.13
THTPA (UniProt Q9BU02)	0.962 ± 0.097
TXN2 (UniProt Q99757)	1.02 ± 0.092
UniProt Q9BYV8	0.942 ± 0.036
PIK3R4 (UniProt Q99570)	1.01 ± 0.049
UniProt Q96TA2 and related entries	1.02 ± 0.029
NEU1 (UniProt Q99519)	0.9473 ± 0.0039
HIRIP3 (UniProt Q9BW71)	0.973 ± 0.015

Target	NP40-soluble protein abundance
ALKBH7 (UniProt Q9BT30)	0.963 ± 0.098
MNT (UniProt Q99583)	0.916 ± 0.01
UniProt Q96T76 and related entries	0.983 ± 0.034
YTHDF1 (UniProt Q9BYJ9)	1.06 ± 0.067
WDR11 (UniProt Q9BZH6)	0.944 ± 0.019
UniProt Q99638 and related entries	1.04 ± 0.13
PTDSS2 (UniProt Q9BVG9)	1.06 ± 0.11
GINS3 (UniProt Q9BRX5)	0.945 ± 0.054
NUF2 (UniProt Q9BZD4)	0.961 ± 0.026
PSMG3 (UniProt Q9BT73)	0.982 ± 0.013
GPATCH1 (UniProt Q9BRR8)	0.982 ± 0.057
VPS25 (UniProt Q9BRG1)	1.05 ± 0.083
CDC5L (UniProt Q99459)	0.991 ± 0.019
UniProt Q99729-3|Q99729	0.979 ± 0.02
DPH2 (UniProt Q9BQC3)	0.989 ± 0.016
GINS4 (UniProt Q9BRT9)	0.962 ± 0.045
UniProt Q9BRR9-2|Q9BRR9-4|Q9BRR9-5|R4GN15	0.966 ± 0.049
C1orf50 (UniProt Q9BV19)	1.02 ± 0.047

Same assay, conditions: concentration: 0.5mM

Target	NP40-soluble protein abundance
HINT2 (UniProt Q9BX68)	0.956 ± 0.05
MRPL9 (UniProt Q9BYD2)	1 ± 0.074
MRPL32 (UniProt Q9BYC8)	0.987 ± 0.21
DDA1 (UniProt Q9BW61)	0.941 ± 0.015
PRPF18 (UniProt Q99633)	0.964 ± 0.025
ADAT1 (UniProt Q9BUB4)	1.07 ± 0.077
UniProt Q9BRA0 and related entries	0.87 ± 0.095
TMEM43 (UniProt Q9BTV4)	1.07 ± 0.069
ARPC5L (UniProt Q9BPX5)	0.918 ± 0.089
UniProt Q9BUL5 and related entries	0.966 ± 0.048
MIPEP (UniProt Q99797)	1.02 ± 0.073
SIKE1 (UniProt Q9BRV8)	0.862 ± 0.1
THTPA (UniProt Q9BU02)	0.933 ± 0.063
TXN2 (UniProt Q99757)	0.948 ± 0.1
UniProt Q9BYV8	0.9607 ± 0.0058
PIK3R4 (UniProt Q99570)	0.972 ± 0.01
UniProt Q96TA2 and related entries	1.05 ± 0.045
NEU1 (UniProt Q99519)	0.998 ± 0.087
HIRIP3 (UniProt Q9BW71)	0.946 ± 0.064

Target	NP40-soluble protein abundance
ALKBH7 (UniProt Q9BT30)	0.941 ± 0.089
MNT (UniProt Q99583)	0.915 ± 0.075
UniProt Q96T76 and related entries	0.94 ± 0.029
YTHDF1 (UniProt Q9BYJ9)	1.07 ± 0.051
WDR11 (UniProt Q9BZH6)	0.956 ± 0.056
UniProt Q99638 and related entries	1.02 ± 0.17
PTDSS2 (UniProt Q9BVG9)	0.896 ± 0.066
GINS3 (UniProt Q9BRX5)	0.924 ± 0.081
NUF2 (UniProt Q9BZD4)	0.973 ± 0.032
PSMG3 (UniProt Q9BT73)	0.972 ± 0.12
GPATCH1 (UniProt Q9BRR8)	0.989 ± 0.12
VPS25 (UniProt Q9BRG1)	1.05 ± 0.084
CDC5L (UniProt Q99459)	1 ± 0.053
UniProt Q99729-3|Q99729	0.987 ± 0.033
DPH2 (UniProt Q9BQC3)	0.934 ± 0.084
GINS4 (UniProt Q9BRT9)	0.965 ± 0.066
UniProt Q9BRR9-2|Q9BRR9-4|Q9BRR9-5|R4GN15	0.915 ± 0.058
C1orf50 (UniProt Q9BV19)	0.974 ± 0.07
